Percent effect of library compounds

Sequences of proteins named here, by UniProt entry; tags and fusion partners are left off.
UniProt P9WNZ1, whole entry: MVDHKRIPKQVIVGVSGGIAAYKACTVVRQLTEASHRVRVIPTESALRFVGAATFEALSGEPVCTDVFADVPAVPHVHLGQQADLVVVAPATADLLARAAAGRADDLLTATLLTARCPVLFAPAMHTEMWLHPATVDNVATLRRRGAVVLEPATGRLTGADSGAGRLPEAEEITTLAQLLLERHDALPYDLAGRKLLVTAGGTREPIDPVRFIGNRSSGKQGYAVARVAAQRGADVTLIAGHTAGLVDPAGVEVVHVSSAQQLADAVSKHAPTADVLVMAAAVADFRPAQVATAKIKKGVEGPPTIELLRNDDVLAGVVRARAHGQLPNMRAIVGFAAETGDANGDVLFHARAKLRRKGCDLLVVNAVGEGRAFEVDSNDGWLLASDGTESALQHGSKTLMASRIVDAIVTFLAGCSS

Measurements from “University of Dundee, Small-Polar-MMV Screening Library” (2021), ChEMBL document CHEMBL3988442.

Values are the deposited “Percent Effect”, in %. The record does not define 0% and 100%; most values in the screen are far below 50% and negative numbers occur (in some assays of this library far below -100). Compounds were drawn at random from those tested, without regard to their results.

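Coenzyme A biosynthesis protein CoaBC, Mycobacterium tuberculosis (UniProt P9WNZ1). Enzyme assay of CoaBC with a phosphate dye (Biomol Green) read at 650 nm. Tested at 30 µM. Higher reads as stronger inhibition, judged from the few compounds that gave an IC50. Most strong results did not repeat in a second test. About 67,000 compounds were tested under these conditions; 0.06% (about 40) showed 50% or more at least once.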

SMILES	percent effect
c1cncc(C[C@@H]2CC[C@H](CN3CCCOCC3)O2)c1	-10.17
CN1CCCN(C(C(=O)O)c2ccc3c(c2)OCO3)CC1 (stereo not given)	-0.7712
CCc1ccc(C2CCCN2C(=O)NCC(=O)NCC(C)C)o1 (stereo not given)	-2.071
CCc1nc2c(N3CCCC(c4nccn4CCOC)C3)ncnc2o1 (stereo not given)	2.885
CNCCN1C(=O)CC[C@H]2CN(c3ncc(F)cn3)CC[C@H]21	3.265
O=C(O)c1c(-c2cccnc2)ncc2c1CCN(CC1CCOC1)C2 (stereo not given)	2.101
Cc1cnn(CC2CCCCN2C(=O)c2ccc3c(c2)nnn3C)c1 (stereo not given)	-0.6329
CN1CCN(C2CCN(Cc3nc(-c4ccoc4)no3)CC2)C1=O	4
COC(=O)Cn1ccc(NS(=O)(=O)c2ccc3c(c2)CCC3)n1	7.992
O=C(NCCn1ccnc1)N1CCN(Cc2cccnc2)CC1	3.823
CN(Cc1ccc(Cl)s1)C(=O)COc1cccc(C(N)=O)c1	1.378
CCN(CCNS(=O)(=O)C1CCOCC1)C(=O)OC(C)(C)C	1.887
CC(=O)c1cccc(NS(=O)(=O)c2cc(C)c(C(=O)O)s2)c1	-3.004
COC(=O)[C@@H]1Cc2ncn(C)c2CN1S(=O)(=O)c1ccc(Cl)cc1	6.483
COCC(=O)N1CC(c2ccnc(Nc3cc(C(F)(F)F)ccn3)n2)C1	3.263
c1cncc(CNC2CCc3ncnn3C2)c1 (stereo not given)	-8.847
Cc1cnn(CCNCc2ccccc2C#N)c1	2.024
Cc1ccc(C(=O)N2CCC(Oc3ccccc3)CC2)c(=O)[nH]1	4.689
CN(C)C(=O)N[C@@H]1CN(S(C)(=O)=O)[C@@H]2CCCO[C@@H]21	-1.903
CCOc1ccc(Cl)cc1CCNC(=O)Cn1ccccc1=O	5.409
Fc1cnc(N2CCO[C@H]3CN(CC4CCOC4)C[C@H]32)nc1 (stereo not given in full)	-7.654
CC(C)n1cnnc1C1CCCN(S(=O)(=O)CC2CCCC2)C1 (stereo not given)	3.713
Cc1noc2ncc(C(=O)NCC3CCS(=O)(=O)C3)cc12 (stereo not given)	4.092
CC(C)(C)SCC(=O)NCCc1csc(N2CCCC2)n1	7.851
O=C(NC[C@H]1OC[C@@H](NCc2ccccn2)[C@@H]1O)c1ccc(F)cc1	4.194
CCCN1CCC(C(=O)NCCN(CC)c2ccccc2C)CC1	-4.519
CC(C)=CCN1C[C@H]2CC[C@@H]1CN(C(=O)c1ccc3[nH]cnc3c1)C2	1.863
CC(C)n1nc(Cn2cccc2)c2c1CN(C1CCOCC1)C2	1.018
CNC(=O)Cc1noc(Cc2cccc(Br)c2)n1	0.2012
Cn1cc(C(=O)Nc2cccc(-c3ccc4c(c3)CCO4)n2)ccc1=O	0
CCOCCCNC(=O)C1(C)CCC(=O)N1c1ccccc1F (stereo not given)	2.767
Cc1nc(CN2C(=O)COC3(CCN(Cc4nccs4)CC3)C2C)cs1 (stereo not given)	5.806
CCC[C@H]1CN(c2nc(CO)cs2)C[C@@H]1NC(=O)C1CCC1	5.051
OCC1(CCOc2ccccc2)CCCN(c2ccc(Cl)cn2)C1 (stereo not given)	6.393
Cc1noc(C)c1CC(=O)N1CCC(Nc2cccnn2)CC1	0.6337
O=C(CC1CCN(c2cccnn2)CC1)NC1CCOCC1	8.252
OCCOCCN1CCCC1c1nc2cc(F)ccc2[nH]1 (stereo not given)	11.4
CCc1cc(CNC(=O)C2CCCN(C(=O)NCC(C)C)C2)[nH]n1 (stereo not given)	0.9685
OCCNc1nccc(-c2cn3nccc3nc2C2CCCCC2)n1	5.422
Cn1cc(N2CC3(CCN(S(=O)(=O)C4CC4)C3)CC2=O)cn1 (stereo not given)	1.396
CC(=O)N1CCCc2ccc(S(=O)(=O)N3CCCCC3C)cc21 (stereo not given)	2.195
O=C(Cn1ccnc1)N1C[C@@H]2CC[C@H](Oc3ccccc3Cl)[C@@H]2C1	6.389
CCCc1cc(C(=O)N2Cc3cnc(C(C)(C)C)nc3C2)ccn1	5.697
CC(=O)N1CCC(n2ccc(-c3cnc(N4CCOCC4)nc3)n2)CC1	1.566
CC(=O)N(Cc1ncc(C)o1)C1CCN(Cc2ccccc2C#N)C1 (stereo not given)	2.949
N#Cc1cc(F)c(NCCc2ccc(S(N)(=O)=O)cc2)c(F)c1	5.03
CC(=O)N1CCCCC1c1nc2c(c(N3CCCCC3)n1)CN(C)CC2 (stereo not given)	5
Cc1nn(C(C)C)c(C)c1NC(=O)Nc1cccnc1N1CCCC1	9.339
COc1nc2c(cc1C(=O)N1CCCC1c1ccccn1)CCC2 (stereo not given)	1.533
CN(CCS(C)(=O)=O)C1CCCN(Cc2noc(C3CC3)n2)C1 (stereo not given)	-3.008
CSCC(C)(O)CNS(=O)(=O)c1ccc(F)cc1 (stereo not given)	10.14
Cc1cc(C(=O)N2CCCC2c2c(C)nn(C)c2C)no1 (stereo not given)	3.944
Cc1nc2n(n1)CC(NCc1nc(C)c(C)o1)CC2 (stereo not given)	-0.9938
CC(C)C(=O)N1CCCC2(CCCN2CC2CCCC2)C1 (stereo not given)	0.8333
Cc1cnc(C(=O)NC(COCC(C)C)c2ccco2)cn1 (stereo not given)	2.91
Cc1cc(N(C)C)nc(N2CCCC2c2ccccn2)n1 (stereo not given)	1.818
COCc1ccc(CNCc2c(C)nn(C)c2N(C)C)cc1	-6.403
CCc1nc(C(=O)N2CCN(C)CC2)nn1-c1ccccc1Cl	2.999
CNC(=O)[C@@H]1C[C@@H](N)CN1c1nnc(-c2ccccc2)s1	-0.6098
O=C(c1cscn1)N1CCC[C@]2(C[C@@H](OCC3CC3)CO2)C1	4.75
Cc1cc(N(C)CCCn2cccn2)nc(N)n1	-0.4959
COC(=O)Cc1cn2cc(C(F)(F)F)ccc2n1	0.2301
Cc1ccc(NC2CCN(C(=O)COCC(F)(F)F)CC2)nn1	2.35
CCc1onc(C)c1C(=O)N1CCC(c2cc3ncccc3cn2)CC1	0.7299
O=C(c1cc(Cl)c2c(c1)OCO2)N1CCCC(n2ccnc2)C1 (stereo not given)	8.214

For reference, 8 entries once more:

{"smiles": "CC(=O)N1CCC(n2ccc(-c3cnc(N4CCOCC4)nc3)n2)CC1", "percent effect": 1.566}
{"smiles": "Cc1nn(C(C)C)c(C)c1NC(=O)Nc1cccnc1N1CCCC1", "percent effect": 9.339}
{"smiles": "CCc1nc(C(=O)N2CCN(C)CC2)nn1-c1ccccc1Cl", "percent effect": 2.999}
{"smiles": "CC(=O)N1CCCc2ccc(S(=O)(=O)N3CCCCC3C)cc21", "stereo": "stereo not given", "percent effect": 2.195}
{"smiles": "Cc1cnn(CCNCc2ccccc2C#N)c1", "percent effect": 2.024}
{"smiles": "OCCOCCN1CCCC1c1nc2cc(F)ccc2[nH]1", "stereo": "stereo not given", "percent effect": 11.4}
{"smiles": "CCc1ccc(C2CCCN2C(=O)NCC(=O)NCC(C)C)o1", "stereo": "stereo not given", "percent effect": -2.071}
{"smiles": "Cc1ccc(C(=O)N2CCC(Oc3ccccc3)CC2)c(=O)[nH]1", "percent effect": 4.689}